No constants are given. Whether binding was seen depends on the method and setting. For some of these results: In cells and extracts the contact can be indirect. Some results given as binding are weak or reduced against the parent protein; the word gives no strength.
What was measured:
[1] = molecular target: myc-CHIP-T246M (pcDNA3-mycCHIP-T246M) (human) (UniProt Q9UNE7); assay: co-IP
[2] = molecular target: myc-CHIP-H260Q (pcDNA3-mycCHIP-H260Q) (human) (UniProt Q9UNE7); assay: native gel or EMSA
[3] = molecular target: myc-CHIP-T246M (pcDNA3-mycCHIP-T246M) (human) (UniProt Q9UNE7); assay: native gel or EMSA
[4] = molecular target: HA-CHIP wild type (pcDNA3-HA-CHIP) (human) (UniProt Q9UNE7); assay: co-IP

Amino acid sequences for entries named in this document (tags omitted). A change or cut given only in a name is not applied to a line headed by its entry.
UniProt Q9UNE7, whole entry: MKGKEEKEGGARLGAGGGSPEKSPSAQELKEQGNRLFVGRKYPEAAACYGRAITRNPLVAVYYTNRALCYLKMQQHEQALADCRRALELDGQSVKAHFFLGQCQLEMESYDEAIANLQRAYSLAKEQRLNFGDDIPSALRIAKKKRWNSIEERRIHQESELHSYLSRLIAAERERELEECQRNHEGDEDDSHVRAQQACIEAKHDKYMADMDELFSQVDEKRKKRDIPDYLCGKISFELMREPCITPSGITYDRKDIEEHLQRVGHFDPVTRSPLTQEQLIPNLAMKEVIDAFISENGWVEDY

HA-CHIP wild type (pcDNA3-HA-CHIP) (from UniProt Q9UNE7 1-303)
binding [1]: binds

myc-CHIP-H260Q (pcDNA3-mycCHIP-H260Q) (from UniProt Q9UNE7 1-303)
binding [2]: binds

myc-CHIP-T246M (pcDNA3-mycCHIP-T246M) (from UniProt Q9UNE7 1-303)
binding [3]: binds | binding [4]: binds

Source: publication doi:10.1101/283192
